Results: patent US20240108753A1 (NUNTIUS THERAPEUTICS LIMITED, priority 2021, published 2024)

Experiments:
[1] = general procedure: peptide synthesis; TentaGel S RAM (500 mg, 0.22 mmol/g; printed for Ala-G1,2,3-KL only); details: whole synthesis
[2] = general procedure: peptide synthesis; TentaGel S RAM; details: whole synthesis

Substance	isolated yield [1] [%]	isolated yield [2] [%]
(K)8(KK)4(KK)2KGSC-NH2	12	
(KL)2KGSC-NH2	60	
(KL)4(KKL)2KGSC-NH2	41	
(KL)8(KKL)4(KKL)2KGSA-NH2		5
(KL)8(KKL)4(KKL)2KKLC-NH2	6	
(KL)8(KLK)4(KLK)2KGSC-NH2	7	
(LK)8(KLK)4(KLK)2KGSC-NH2	4	
(RL)4(KRL)2KGSC-NH2	38	
(RL)8(KRL)4(KRL)2KGSC-NH2	2	
(kl)8(kkl)4(kkl)2kgsc-NH2	5	
PEPTIDE1{K.L.K.K.L.K.K.L.K.G.S.C.[am]}|PEPTIDE2{K.L.K.K.L.K.K.L}|PEPTIDE3{K.L.K.K.L}|PEPTIDE4{K.L.K.K.L}|PEPTIDE5{K.L}|PEPTIDE6{K.L}|PEPTIDE7{K.L}|PEPTIDE8{K.L}$PEPTIDE1,PEPTIDE2,9:R3-8:R2|PEPTIDE1,PEPTIDE3,6:R3-5:R2|PEPTIDE2,PEPTIDE4,6:R3-5:R2|PEPTIDE1,PEPTIDE5,3:R3-2:R2|PEPTIDE2,PEPTIDE6,3:R3-2:R2|PEPTIDE3,PEPTIDE7,3:R3-2:R2|PEPTIDE4,PEPTIDE8,3:R3-2:R2$$$V2.0	9	
RLRLKGSC-NH2	51	

For part of these data: HELM strings list residues between dots; [ac] is acetyl, [am] amide, other brackets name non-standard units. Where no end group is shown, it is not given here.
